# Among all 300,000 compounds or so, about 3,700 (1.2%) were called active. Inconclusive results, whose numbers are uncertain, are shown with a selection of clear calls. Calls come from the whole dose curve; tested in HEK293 cells. Potencies of inconclusive entries are doubtful fits and often do not repeat.
# Assay: qHTS for Inhibitors of binding or entry into cells for Lassa Virus; note: nearly all actives have a fitted effect of over 50% in size
# Settings: Lassa virus pseudotype entry inhibition, cell reporter; series mostly up to 37.9 µM
# Potency is the fitted concentration of half-maximal effect.
row,Compound,Potency
1,O=C(Nc1ccccc1N1CCCCC1)c1ccc2nccnc2c1,"inconclusive: 25.9 µM [inhibitor, partial curve, poor fit]"
2,Cc1cc(C)cc(N2C(=O)CS(=O)(=O)C23C(=O)N(C)c2ccccc23)c1 (stereo not given),"inconclusive: 17.8 µM [activator, partial curve, poor fit]"
3,O=C(N/N=C/c1ccc(OCc2ccccc2)cc1)c1cccs1,inactive
4,COc1ccc(CNC(=S)Nc2ccc(-c3ccccc3)cc2)cc1,"inconclusive: 2.82 µM [inhibitor, full curve]"
5,Cc1onc(-c2ccccc2)c1C(=O)NC(=S)NNC(=O)c1cc(-c2ccc(F)cc2)n[nH]1,"inconclusive: 35.5 µM [inhibitor, single point]"
6,CC(=O)/C(N)=N/Nc1cccc(Cl)c1,inactive
7,Cc1c(NC(=O)C(C)OC(=O)COc2ccc(C#N)cc2)c(=O)n(-c2ccccc2)n1C (stereo not given),"inconclusive: 1.26 µM [inhibitor, full curve]"
8,Cc1cc(C)n(CCOC(=O)C2C(C=C(Cl)Cl)C2(C)C)n1 (stereo not given),"inconclusive: 7.94 µM [inhibitor, partial curve, poor fit]"
9,CCCc1c(C(=O)OCC)nnc2c(-c3ccccc3)c(C)nn12,"inconclusive: 35.5 µM [inhibitor, single point]"
10,Cc1nc([N+](=O)[O-])c(Sc2nc3ccccc3n2C)n1Cc1ccccc1,"inconclusive: 0.231 µM [activator, single point]"
11,CNC(=S)N/N=C(\C)c1ccc(C)c(C)c1,"inconclusive: 35.5 µM [inhibitor, single point]"
12,CCOc1cc(N2CCOCC2)c(OCC)cc1NC(=O)COC(=O)c1cccc2ccccc12,"inconclusive: 0.366 µM [inhibitor, full curve, poor fit]"
13,FCCCOc1ccc(CN2CCN(c3ccccc3F)CC2)cc1,"inconclusive: 0.282 µM [inhibitor, full curve, poor fit]"
14,CCc1cc(=O)oc2cc3occ(-c4ccc(OC)c(F)c4)c3cc12,active: 5.01 µM
15,CCOC(=O)Nc1ccc2nc3n(c(=O)c2c1)CCCCC3,inactive
16,O=C(NC1CCCCC1)C(c1ccc(F)cc1)N(Cc1ccco1)C(=O)CN1C(=O)c2ccccc2S1(=O)=O (stereo not given),"inconclusive: 28.2 µM [inhibitor, single point]"
17,COc1ccc(-c2cc(C3CCN(c4ccc(C(C)=O)cc4[N+](=O)[O-])CC3)[nH]n2)cc1,"inconclusive: 29.1 µM [inhibitor, single point]"
18,O=C(c1cc(-c2ccccc2Cl)nc2ccccc12)N1CCN(c2ccccc2O)CC1,"inconclusive: 22.4 µM [inhibitor, single point]"
19,CC1=CCC(C(=O)O)C(C(=O)Nc2cccnc2)C1 (stereo not given),"inconclusive: 31.6 µM [inhibitor, single point]"
20,COc1ccc2c(c1)cc(C(O)c1ccccn1)n2S(=O)(=O)c1ccccc1 (stereo not given),inactive
21,Cc1nnc(N2CCC(C(=O)N3CCCCC3)CC2)c2nn(-c3ccccc3)c(C)c12,inactive
22,COc1ccc(CNS(=O)(=O)c2ccc3c(c2)NC(=O)C(C)C(=O)N3)cc1 (stereo not given),"inconclusive: 8.91 µM [activator, single point]"

# 18 entries from above in another layout:
row | Compound | Potency
1 | O=C(Nc1ccccc1N1CCCCC1)c1ccc2nccnc2c1 | inconclusive: 25.9 µM [inhibitor, partial curve, poor fit]
2 | Cc1cc(C)cc(N2C(=O)CS(=O)(=O)C23C(=O)N(C)c2ccccc23)c1 (stereo not given) | inconclusive: 17.8 µM [activator, partial curve, poor fit]
3 | O=C(N/N=C/c1ccc(OCc2ccccc2)cc1)c1cccs1 | inactive
4 | COc1ccc(CNC(=S)Nc2ccc(-c3ccccc3)cc2)cc1 | inconclusive: 2.82 µM [inhibitor, full curve]
5 | Cc1onc(-c2ccccc2)c1C(=O)NC(=S)NNC(=O)c1cc(-c2ccc(F)cc2)n[nH]1 | inconclusive: 35.5 µM [inhibitor, single point]
6 | CC(=O)/C(N)=N/Nc1cccc(Cl)c1 | inactive
7 | Cc1c(NC(=O)C(C)OC(=O)COc2ccc(C#N)cc2)c(=O)n(-c2ccccc2)n1C (stereo not given) | inconclusive: 1.26 µM [inhibitor, full curve]
8 | Cc1cc(C)n(CCOC(=O)C2C(C=C(Cl)Cl)C2(C)C)n1 (stereo not given) | inconclusive: 7.94 µM [inhibitor, partial curve, poor fit]
9 | CCCc1c(C(=O)OCC)nnc2c(-c3ccccc3)c(C)nn12 | inconclusive: 35.5 µM [inhibitor, single point]
10 | Cc1nc([N+](=O)[O-])c(Sc2nc3ccccc3n2C)n1Cc1ccccc1 | inconclusive: 0.231 µM [activator, single point]
11 | CNC(=S)N/N=C(\C)c1ccc(C)c(C)c1 | inconclusive: 35.5 µM [inhibitor, single point]
12 | CCOc1cc(N2CCOCC2)c(OCC)cc1NC(=O)COC(=O)c1cccc2ccccc12 | inconclusive: 0.366 µM [inhibitor, full curve, poor fit]
13 | FCCCOc1ccc(CN2CCN(c3ccccc3F)CC2)cc1 | inconclusive: 0.282 µM [inhibitor, full curve, poor fit]
14 | CCc1cc(=O)oc2cc3occ(-c4ccc(OC)c(F)c4)c3cc12 | active: 5.01 µM
15 | CCOC(=O)Nc1ccc2nc3n(c(=O)c2c1)CCCCC3 | inactive
16 | O=C(NC1CCCCC1)C(c1ccc(F)cc1)N(Cc1ccco1)C(=O)CN1C(=O)c2ccccc2S1(=O)=O (stereo not given) | inconclusive: 28.2 µM [inhibitor, single point]
17 | COc1ccc(-c2cc(C3CCN(c4ccc(C(C)=O)cc4[N+](=O)[O-])CC3)[nH]n2)cc1 | inconclusive: 29.1 µM [inhibitor, single point]
18 | O=C(c1cc(-c2ccccc2Cl)nc2ccccc12)N1CCN(c2ccccc2O)CC1 | inconclusive: 22.4 µM [inhibitor, single point]

# Later entries

row,Compound,Potency
1,O=S(=O)(Nc1cccc(-c2ccc(N3CCOCC3)nn2)c1)c1cc(Cl)ccc1Cl,"inconclusive: 10 µM [inhibitor, partial curve]"
2,Cc1ccc(C)c(S(=O)(=O)Nc2ccc3c(c2)CCCN3C(=O)c2cccs2)c1,"inconclusive: 35.5 µM [inhibitor, single point]"
3,CC(C)(C)c1ccc(NC(=O)COC(=O)c2ccc(NS(=O)(=O)c3ccc(F)c(F)c3)cc2)cc1,active: 12.6 µM
4,Cc1cc(C)cc(N(C(=O)c2csnn2)C(C(=O)NC2CCCCC2)c2ccccn2)c1 (stereo not given),inactive
5,Cc1ccc(NS(=O)(=O)c2ccc(NC(=O)C3CC3)cc2)cc1C,"inconclusive: 10 µM [inhibitor, partial curve, poor fit]"
6,O=[N+]([O-])c1ccccc1/C=C/C=N/n1c(-c2cc(-c3ccccc3)n[nH]2)n[nH]c1=S,inactive
7,CC1CC(C)CN(C(=O)CN2C(=O)NC(C)(C)C2=O)C1 (stereo not given),"inconclusive: 35.5 µM [activator, single point]"
8,CC1=C(C(=O)Nc2ccc3n[nH]c(C)c3c2)C(c2ccc(C(F)(F)F)cc2)CC(=O)N1 (stereo not given),"inconclusive: 0.112 µM [activator, full curve, poor fit]"
9,O=C1OC(C(=O)O)Cc2ccccc21 (stereo not given),"inconclusive: 2.06 µM [inhibitor, full curve, poor fit]"
10,CCOc1ccc(/C=C/C(=O)c2cc(Br)ccc(=O)c2O)cc1,"inconclusive: 25.9 µM [inhibitor, single point]"
11,OC(CNc1ccnc2cc(Cl)ccc12)CNC1CCCCC1 (stereo not given),"inconclusive: 25.1 µM [inhibitor, single point]"
12,Fc1ccc([C@@H]2Nc3ccccc3[C@@H]3C=CC[C@@H]32)cc1,inactive
13,COc1ccc(S(=O)(=O)N2CCCCCC2)cc1C(=O)NCc1ccccc1Cl,"inconclusive: 1.41 µM [inhibitor, partial curve, poor fit]"
14,CCOc1cc(N2CCOCC2)c(OCC)cc1NS(=O)(=O)c1ccc(Cl)s1,"inconclusive: 1.78 µM [inhibitor, full curve]"
15,N#C/C(=C\c1cccc(Oc2ccccc2)c1)C(=O)N1CCOCC1,"inconclusive: 35.5 µM [inhibitor, single point]"
16,COC(=O)C1C(=O)CC(C)(O)C(C(=O)OC)C1c1ccccc1F (stereo not given),"inconclusive: 0.0651 µM [inhibitor, single point]"
17,CC(C)(C)c1ccc(OCc2ccc(C(=O)Nc3cccnc3)o2)cc1,"inconclusive: 11.2 µM [inhibitor, partial curve, poor fit]"
18,Cc1nc(S(=O)(=O)N(C)c2ccccc2)c(C#N)c(C)c1Cl,"inconclusive: 0.651 µM [activator, single point]"
19,CN(C)c1ccc(NC(=S)NC(=O)/C=C/c2ccc(Cl)cc2)cc1,inactive
20,COc1ccc(CCNC(=O)c2cnc3sc(N4CCOCC4)nn3c2=O)cc1OC,"inconclusive: 35.5 µM [activator, single point]"
21,S=C(Nc1ccccc1)Nc1ccc(Cl)cc1Cl,"inconclusive: 3.98 µM [activator, full curve, poor fit]"
22,CC(=O)c1cccc(NC(=O)Cn2c(=O)oc3cc(S(=O)(=O)NCc4ccccc4)ccc32)c1,inactive

row,Compound,Potency
1,O=S(=O)(Nc1ccc(F)cc1F)c1ccc(Br)s1,"inconclusive: 3.98 µM [activator, full curve, poor fit]"
2,COc1ccc(C2C(C#N)=C(N)N(c3sc4c(c3C#N)CCCC4)C3=C2C(=O)CC(C)(C)C3)cc1 (stereo not given),"inconclusive: 6.51 µM [inhibitor, full curve, poor fit]"
3,N#C/C=C/N1CCN(Cc2ccc3c(c2)OCO3)CC1,"inconclusive: 0.112 µM [activator, full curve, poor fit]"
4,O=c1cc(C(F)(F)F)[nH]c2ccc(OC(F)(F)F)cc12,"inconclusive: 3.16 µM [inhibitor, partial curve, poor fit]"
5,CCOCCCn1c(=S)[nH]c2cc(C(=O)NCCN(CC)CC)ccc2c1=O,inactive
6,Cn1c(=O)c2c(nc(NCCCO)n2C/C=C/c2ccccc2)n(C)c1=O,"inconclusive: 11.2 µM [inhibitor, partial curve, poor fit]"
7,CCC(=NCC1CCCO1)c1c(O)n(-c2ccc(OC)cc2)c(=O)[nH]c1=O (stereo not given),"inconclusive: 2 µM [inhibitor, full curve, poor fit]"
8,CN1CCN(S(=O)(=O)c2ccc(NC(=O)Nc3cccc(Cl)c3)cc2)CC1,"inconclusive: 35.5 µM [inhibitor, single point]"
9,Cn1c2ccccc2c2cc([N+](=O)[O-])ccc21,inactive
10,COc1ccc(C2c3c(n(C)c4ccccc34)C(=O)N2CC(=O)Nc2ccccc2Cl)cc1 (stereo not given),inactive
11,O=C1c2ccc([N+](=O)[O-])cc2NC(c2ccco2)N1/N=C/c1ccco1 (stereo not given),inactive
12,O=C(c1ccc(Nc2nc3ccccc3n3nnnc23)cc1)N1CCN(c2ccc(F)cc2)CC1,inactive
13,Cc1nnc(Sc2cc(NCCO)c([N+](=O)[O-])c3nonc23)s1,"inconclusive: 22.4 µM [inhibitor, single point]"
14,Cc1cccc(N2C(=O)CS/C2=N\NC(=O)c2ccc(Br)cc2)c1C,"inconclusive: 29.1 µM [activator, single point]"
15,CC1CCCN(S(=O)(=O)c2ccc(C(=O)Nc3nnc(-c4ccco4)o3)cc2)C1 (stereo not given),"inconclusive: 35.5 µM [inhibitor, single point]"
16,COc1cccc(C(CNc2ccc(S(=O)(=O)N3CCN(C)CC3)cc2[N+](=O)[O-])N(C)C)c1 (stereo not given),inactive
17,O=C(NCc1ccc2c(c1)CCN2C(=O)c1ccccc1)c1ccc(Br)o1,inactive
18,COc1ccccc1Nc1nc(N)nc(CN2CCN(c3ccccc3F)CC2)n1,"inconclusive: 14.6 µM [inhibitor, partial curve, poor fit]"
19,CCCC(=O)Oc1ccc2c(C)cc(=O)oc2c1,inactive
20,CCN(CC)S(=O)(=O)c1ccc2c(c1)c(=O)c(C(=O)NCc1ccccc1OC)cn2C,"inconclusive: 17.8 µM [inhibitor, single point]"
21,Cc1ccc(C(=O)N2CCc3cc(CNC(=O)c4ccnn4C)ccc32)cc1,"inconclusive: 10 µM [inhibitor, single point]"

# From PubChem BioAssay AID540256 (National Center for Advancing Translational Sciences (NCATS), 2011)
